{"sequences": {"note": "By UniProt entry, the sequences of proteins in these tests, tags left out.", "UniProt Q0JBA9, entry or part of it": "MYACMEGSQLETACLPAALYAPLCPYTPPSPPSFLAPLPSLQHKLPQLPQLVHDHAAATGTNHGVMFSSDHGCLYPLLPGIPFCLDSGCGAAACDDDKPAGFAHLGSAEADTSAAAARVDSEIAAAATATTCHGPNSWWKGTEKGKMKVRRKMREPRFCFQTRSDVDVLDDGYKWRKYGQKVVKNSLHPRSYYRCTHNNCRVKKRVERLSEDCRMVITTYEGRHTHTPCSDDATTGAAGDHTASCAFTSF"}, "source": "paper PMC7819943", "about": "“Rice protein-binding microarrays: a tool to detect cis-acting elements near promoter regions in rice”", "note": "The list shows a part of the results."}
{"molecular_target": "OsWRKY34 (Oryza sativa, UniProt Q0JBA9 1-250)", "test": "protein-binding microarray (RPBM); PBS, 2% BSA, 51.3 ng/ul salmon testes DNA, 50 uM zinc acetate, 200 nM TF, 25 C, 1 h; high values mean tight binding", "conditions": "protein: recombinant; tags: N-terminal polyhistidine and DsRed monomer fusion (pET32a); label: CyDye5-dUTP incorporated in the synthesized complementary strand; 3' TTTTT single-stranded linker to array surface; dsDNA, one strand shown", "outline": "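Transcription factors were made in E. coli BL21-CodonPlus as N-terminal fusions to a polyhistidine tag and DsRed, then purified on Ni–NTA. After primer extension with Cy5-dUTP and blocking with 2% BSA, a custom Agilent array was exposed for 1 h at 25 °C to 200 nM protein in PBS, 2% BSA, salmon testes DNA and 50 µM zinc acetate. Washed arrays were scanned on an Axon 4000B, and the binding signal is per-feature fluorescence intensity in arbitrary units.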"}
{"sequence": "TGGCGCGCCGCGCGTCCACCAGTCCACCGCTCCGCCACTCCGGAGTCACCTAGTGCAG", "binding signal": "10600 fluorescence intensity (a.u.)"}
{"sequence": "CTTTCCGCGGTCCTTTTGCTCGGTTCAGCACGCACGCGGGCGGAGTCACCTAGTGCAG", "binding signal": "9440 fluorescence intensity (a.u.)"}
{"sequence": "GAACCATTATAATCCTTGTCTTTTGTTTGTTTTGATGTCGCGGAGTCACCTAGTGCAG", "binding signal": "8970 fluorescence intensity (a.u.)"}
{"sequence": "TCCCCACGCCGCGCCGCCCGCCTGACCTCAGCCACGCACACGGAGTCACCTAGTGCAG", "binding signal": "10500 fluorescence intensity (a.u.)"}
{"sequence": "CTGTCTACTCGCACTCGCCGCCGCTGCCGTTCCCCATCCCCGGAGTCACCTAGTGCAG", "binding signal": "9840 fluorescence intensity (a.u.)"}
{"sequence": "AAGGACAACATCATCATCCATGACCATGCTGACAGCGCGCCGGAGTCACCTAGTGCAG", "binding signal": "8380 fluorescence intensity (a.u.)"}
{"sequence": "GAATTCTCAAAGGCCTACAAGATTTTCTCTTTCTTTTTCCCGGAGTCACCTAGTGCAG", "binding signal": "8920 fluorescence intensity (a.u.)"}
{"sequence": "TCGTCGTTCTTGTGCTTGTTTTCCGTCGAATCCTCGTGCACGGAGTCACCTAGTGCAG", "binding signal": "9310 fluorescence intensity (a.u.)"}
{"sequence": "TACCTCGCATGCCACGCAGTCCCACGTACGCCTCTCGTGTCGGAGTCACCTAGTGCAG", "binding signal": "9040 fluorescence intensity (a.u.)"}
{"sequence": "TTTCGGTTTTGCTACTTCACATGCGCATATTTTTGGAGGGCGGAGTCACCTAGTGCAG", "binding signal": "9330 fluorescence intensity (a.u.)"}
{"sequence": "ACCAACTCACAAATTCCTTCCGCTACTCATCTACTCTACTCGGAGTCACCTAGTGCAG", "binding signal": "9800 fluorescence intensity (a.u.)"}
{"sequence": "CCCCGTCGTTGTCGCCACCTACTTCTACCTGCGCGGATTCCGGAGTCACCTAGTGCAG", "binding signal": "10800 fluorescence intensity (a.u.)"}
{"sequence": "ATCTGCTTTTCTGTCATGTAGTCTTGCAAGAACTTCCGAACGGAGTCACCTAGTGCAG", "binding signal": "11300 fluorescence intensity (a.u.)"}
{"sequence": "CCCTTGTTCGTCCCTCTTGCATCGGACGGTGCACGTTTTCCGGAGTCACCTAGTGCAG", "binding signal": "11900 fluorescence intensity (a.u.)"}
{"sequence": "CGGCGTCTCTACCTCTACGAATCAGGTCAGGCTTCGATCCCGGAGTCACCTAGTGCAG", "binding signal": "8380 fluorescence intensity (a.u.)"}
{"sequence": "TCTCTGGCTCTTTTACCTCAATCTCGTATATACTCTGGTACGGAGTCACCTAGTGCAG", "binding signal": "8830 fluorescence intensity (a.u.)"}
{"sequence": "AAAACACTCGGGTATACGTCCACTCGTTTTTTACATGTCACGGAGTCACCTAGTGCAG", "binding signal": "8820 fluorescence intensity (a.u.)"}
{"sequence": "ACCGTTCTTAGCTATGGGTTGCCGCCGCAACGGCCTAAATCGGAGTCACCTAGTGCAG", "binding signal": "8080 fluorescence intensity (a.u.)"}
{"sequence": "GCCGCCGCCGCCGTCTGCACCCGCGTCAGCGCTCCACAAACGGAGTCACCTAGTGCAG", "binding signal": "8680 fluorescence intensity (a.u.)"}
{"sequence": "TTCCCTACCAGTCTCATCCCAGACTAGTTTTAATCTGACTCGGAGTCACCTAGTGCAG", "binding signal": "8410 fluorescence intensity (a.u.)"}
{"sequence": "GATCCACACCAGATACACGCTCAAAACCCATCTCTGTTCACGGAGTCACCTAGTGCAG", "binding signal": "9770 fluorescence intensity (a.u.)"}
{"sequence": "GATTATGTACAACATTCTTCACTACAATTTTACATTTTGGCGGAGTCACCTAGTGCAG", "binding signal": "9340 fluorescence intensity (a.u.)"}
{"sequence": "TCTATATGGACTCTGTCTTTTCTTTTTCTCTCCGATTAATCGGAGTCACCTAGTGCAG", "binding signal": "8460 fluorescence intensity (a.u.)"}
{"sequence": "ATCCGGCCCATCTACCACGAGCTCTTCAGCCCGTCGGCCCCGGAGTCACCTAGTGCAG", "binding signal": "8460 fluorescence intensity (a.u.)"}
{"sequence": "CCTCCTCGCCCGCCGCTTCCGCCGATCCCCATCCTAGCCACGGAGTCACCTAGTGCAG", "binding signal": "8680 fluorescence intensity (a.u.)"}
{"sequence": "AATTTTCATTTGCTTTTCGAAGTCCATTTTTCAGTAGTCCCGGAGTCACCTAGTGCAG", "binding signal": "8400 fluorescence intensity (a.u.)"}
{"sequence": "TGTCAACCGTAAGCTGCTTGAGCGCGTCGCTTTCTTTCTTCGGAGTCACCTAGTGCAG", "binding signal": "8060 fluorescence intensity (a.u.)"}
{"sequence": "TTTTTTCGGTCTCGGTATCGGTCTTTTCGGTTCGATCTTACGGAGTCACCTAGTGCAG", "binding signal": "8400 fluorescence intensity (a.u.)"}
{"sequence": "AGCTTTGTTGTGCATTTGATTCATTATAACTATGGTTTCTCGGAGTCACCTAGTGCAG", "binding signal": "10000 fluorescence intensity (a.u.)"}
{"sequence": "TACGGTTCGTTATAGACGTCTAGTGTTCACTGCTATTTCTCGGAGTCACCTAGTGCAG", "binding signal": "9340 fluorescence intensity (a.u.)"}
{"sequence": "CGAGGAGGTAGATGGGCTCCGGCGCCGGGGTGGGGTGGTGCGGAGTCACCTAGTGCAG", "binding signal": "8940 fluorescence intensity (a.u.)"}
{"sequence": "AGCTCTCTCATGCATTGCCTCGTTTTTCTCTATAGACTATCGGAGTCACCTAGTGCAG", "binding signal": "11400 fluorescence intensity (a.u.)"}
{"sequence": "CAGTCGCAGTTTCTACAAAGTTTGACTAAATTTTTCACCCCGGAGTCACCTAGTGCAG", "binding signal": "9370 fluorescence intensity (a.u.)"}
{"sequence": "ATACATTTATTCCTTCTTAGAGTCACTACTCTTCATTGAACGGAGTCACCTAGTGCAG", "binding signal": "8060 fluorescence intensity (a.u.)"}
{"sequence": "CCTGTCCCATCGCACTATCTACCTTCAATTTCTCTCGCGGCGGAGTCACCTAGTGCAG", "binding signal": "9060 fluorescence intensity (a.u.)"}
{"sequence": "CCGCGCCGCGCCACGCCACGCCACGCCGAGTTGCCGAGCTCGGAGTCACCTAGTGCAG", "binding signal": "8580 fluorescence intensity (a.u.)"}
{"sequence": "TTATCCTCAGTGAGCTTCAGAGTTTGTTTTTTTTCTGTCCCGGAGTCACCTAGTGCAG", "binding signal": "10400 fluorescence intensity (a.u.)"}
{"sequence": "GCCGCTGTTTGCTCCGCCCCTGAAATACGACCCGGCGGCGCGGAGTCACCTAGTGCAG", "binding signal": "9030 fluorescence intensity (a.u.)"}
{"sequence": "TGCCCTCTGACCTCATTTTCAGTCCCTGTTAGGACTTCATCGGAGTCACCTAGTGCAG", "binding signal": "9820 fluorescence intensity (a.u.)"}
{"sequence": "TCCTTTTCTTTTCTTTTATTTTTTTTTGTTTTTTCCCGTTCGGAGTCACCTAGTGCAG", "binding signal": "8300 fluorescence intensity (a.u.)"}
{"sequence": "ACGCGCCATCTTGCACATCTCCCCGCCGTCTCGTGGGCATCGGAGTCACCTAGTGCAG", "binding signal": "8110 fluorescence intensity (a.u.)"}
{"sequence": "CTTAAACGCGTACTCTCATACAATTAATGTATGCTGGATTCGGAGTCACCTAGTGCAG", "binding signal": "9150 fluorescence intensity (a.u.)"}
{"sequence": "CCAATTTACAGTCTCAATCCACTCCCACCAATCTTCTCTACGGAGTCACCTAGTGCAG", "binding signal": "8420 fluorescence intensity (a.u.)"}
{"sequence": "ACGTTGGATTGGTGGTGGACGGGCGCGATGGGTTGGGGTGCGGAGTCACCTAGTGCAG", "binding signal": "9930 fluorescence intensity (a.u.)"}
{"sequence": "TTGGGTGGAGGATTTGGAATTTGACCGGTTGACTTAGGGTCGGAGTCACCTAGTGCAG", "binding signal": "11900 fluorescence intensity (a.u.)"}
{"sequence": "TTTAGGGATATACATTTCTGGTTTTGTGGTTAAGGGACTTCGGAGTCACCTAGTGCAG", "binding signal": "8430 fluorescence intensity (a.u.)"}
{"sequence": "GTGTTCGTCACTTCAGCCCGTTCGAACTGTCTCGTGGCCACGGAGTCACCTAGTGCAG", "binding signal": "9130 fluorescence intensity (a.u.)"}
{"sequence": "CCCTGCCGCATCTTCTCATCGCCCTCACGCCCGGCCGGCCCGGAGTCACCTAGTGCAG", "binding signal": "14300 fluorescence intensity (a.u.)"}
{"sequence": "CTTCTCTCTCTTCTCTTTTCTCTCCTCTATATTAGCATTTCGGAGTCACCTAGTGCAG", "binding signal": "9370 fluorescence intensity (a.u.)"}
{"sequence": "CCGCCGCCCACCTCATGCCTTGCGCGGTGCCCGTGAGAGACGGAGTCACCTAGTGCAG", "binding signal": "8250 fluorescence intensity (a.u.)"}
{"sequence": "TGTGTTTTTGTGTGTGTGTTTCAGTGTGTCTCTCATCCCTCGGAGTCACCTAGTGCAG", "binding signal": "9450 fluorescence intensity (a.u.)"}
{"sequence": "AACTAAACTCGGCCTCAAATTAGTGTCAAACTTCTCTTGTCGGAGTCACCTAGTGCAG", "binding signal": "8400 fluorescence intensity (a.u.)"}
{"sequence": "CCTAGTAACCTACGACTCCCAGGTTCCAACACCACCCATCCGGAGTCACCTAGTGCAG", "binding signal": "8120 fluorescence intensity (a.u.)"}
{"sequence": "ACAAAAATACGAATATTCCGTTCCACGTCGTCTATCCGCGCGGAGTCACCTAGTGCAG", "binding signal": "9330 fluorescence intensity (a.u.)"}
